Test results from patent US5457101A (priority 1994, dated 1995).

Test system: 5-HT-1C receptor

Cc1cc2c(s1)Nc1ccccc1N=C2N1CCN(C)CC1 [2-methyl-4-(4-methyl-1-piperazinyl)-10H-thieno-[2,3-b][1,5]benzodiazepine]
activity at the 5-HT-1C receptor: active
